PubChem BioAssay AID1259425 – University of Nebraska Medical Center – 2018
Shown is an unselected part of about 14,000 reagents. No sequences are given here. The record does not give: the time to read-out.

Test: 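Seek colon cancer weak points whose silencing resembles KSR1 loss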 (primary screen)
Cell system: HCT116 human colon cancer cells
Knock-down reagent: siRNA pool against human genes, 50 nM siRNA
Read-out: 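After 50 nM siRNA pool, branched-DNA assay measures six marker transcripts per well, minus blank, normalised to the geometric mean of two housekeeping transcripts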
Direction: BNIP3L mRNA: higher = more BNIP3L transcript after knockdown; NDRG1 mRNA: higher = more NDRG1 transcript after knockdown; BNIP3 mRNA: higher = more BNIP3 transcript after knockdown; ALDOC mRNA: higher = more ALDOC transcript after knockdown; ACSL5 mRNA: higher = more ACSL5 transcript after knockdown

gene	BNIP3L mRNA, set 1	NDRG1 mRNA, set 1	BNIP3 mRNA, set 1	ALDOC mRNA, set 1	ACSL5 mRNA, set 1
PDE6A (phosphodiesterase 6A)	0.06	0.127	0.309	0.0112	0.113
S1PR2 (sphingosine-1-phosphate receptor 2)	0.12	0.187	0.27	0.0248	0.227
ISLR (immunoglobulin superfamily containing leucine rich repeat)	0.0748	0.146	0.453	0.0198	0.266
CDKN2AIP (CDKN2A interacting protein)	0.0826	0.0628	0.275	0.0237	0.163
RAC1 (Rac family small GTPase 1)	0.199	0.127	0.443	0.00103	0.482
DDX60 (DExD/H-box helicase 60)	0.14	0.18	0.334	0.0173	0.229
SGK2 (serum/glucocorticoid regulated kinase 2)	0.0796	0.248	0.344	0.00615	0.246
SEC23IP (SEC23 interacting protein)	0.106	0.148	0.227	0.0208	0.109
KRT36 (keratin 36)	0.121	0.201	0.278	0.0209	0.174
ALDH1L1 (aldehyde dehydrogenase 1 family member L1)	0.124	0.402	0.167	0.0879	0.194
ZRSR2P1 (ZRSR2 pseudogene 1)	0.0998	0.218	0.296	0.041	0.121
CBR1 (carbonyl reductase 1)	0.0459	0.162	0.299	0.037	0.144
NMT1 (N-myristoyltransferase 1)	0.0838	0.101	0.264	0.0161	0.0972
C4B (complement C4B (Chido/Rodgers blood group))	0.0802	0.344	0.466	0.00856	0.265
MTA2 (metastasis associated 1 family member 2)	0.111	0.0566	0.4	0.018	0.154
GZMK (granzyme K)	0.11	0.0333	0.297	0.0128	0.0409
FCRL2 (Fc receptor like 2)	0.149	0.188	0.309	0.06	0.363
CNTN1 (contactin 1)	0.0913	0.0838	0.293	0.0125	0.159
ACP6 (acid phosphatase 6, lysophosphatidic)	0.106	0.157	0.46	0.0174	0.258
EZR (ezrin)	0.0933	0.12	0.253	0.00712	0.225
ANXA1 (annexin A1)	0.0592	0.112	0.205	0.0144	0.112
SUPT20H (SPT20 homolog, SAGA complex component)	0.0712	0.177	0.206	0.0195	0.042
PISD (phosphatidylserine decarboxylase)	0.391	0.691	0.582	0.382	0.165
HAUS6 (HAUS augmin like complex subunit 6)	0.165	0.285	0.342	0.0208	0.167
MTHFD1L	0.155	0.173	0.36	0.0398	0.205
TIMP1 (TIMP metallopeptidase inhibitor 1)	0.0945	0.296	0.222	0.0533	0.216
TECR (trans-2,3-enoyl-CoA reductase)	0.182	0.233	0.293	0.0629	0.0969
SPATA6 (spermatogenesis associated 6)	0.202	0.261	0.313	0.0414	0.169
MTMR6 (myotubularin related protein 6)	0.0811	0.168	0.213	0.017	0.194
SRSF6 (serine and arginine rich splicing factor 6)	0.0751	0.166	0.397	0.0387	0.126
CYTH1 (cytohesin 1)	0.065	0.0726	0.218	0.0153	0.103
WRNIP1 (WRN helicase interacting protein 1)	0.104	0.117	0.221	0.0525	0.161
ATP8B4 (ATPase phospholipid transporting 8B4 (putative))	0.173	0.198	0.293	0.0474	0.219
LDLRAP1 (low density lipoprotein receptor adaptor protein 1)	0.11	0.0558	0.333	0.0153	0.106
KLHL1 (kelch like family member 1)	0.145	0.126	0.281	0.0167	0.127
PRNP (prion protein (Kanno blood group))	0.229	0.157	0.241	0.0319	0.102
CPS1 (carbamoyl-phosphate synthase 1)	0.109	0.152	0.329	0.0351	0.117
USP45 (ubiquitin specific peptidase 45)	0.131	0.212	0.323	0.0395	0.419
CNNM4	0.103	0.151	0.296	0.0367	0.129
ATP6V0D1 (ATPase H+ transporting V0 subunit d1)	0.158	0.232	0.362	0.0683	0.207
ATP2C2 (ATPase secretory pathway Ca2+ transporting 2)	0.115	0.144	0.301	0.0189	0.316
PCID2 (PCI domain containing 2)	0.0521	0.102	0.257	0.0228	0.248
VAMP7 (vesicle associated membrane protein 7)	0.0658	0.389	0.195	0.123	0.157
NDUFB7 (NADH:ubiquinone oxidoreductase subunit B7)	0.33	0.974	1.49	0.238	0.233
CASQ2 (calsequestrin 2)	0.0993	0.183	0.207	0.0107	0.133
TCL1B (TCL1 family AKT coactivator B)	0.0701	0.0504	0.201	0.0203	0.0475
ZNF547 (zinc finger protein 547)	0.0539	0.0726	0.353	0.0122	0.147
NCS1 (neuronal calcium sensor 1)	0.171	0.305	0.493	0.0305	0.207
SLC23A2	0.0767	0.352	0.296	0.0344	0.193
NECAB3 (N-terminal EF-hand calcium binding protein 3)	0.076	0.224	0.297	0.0209	0.131

A few values from the entries so far.
Value of GZMK (granzyme K) under “ACSL5 mRNA, set 1”: 0.0409
Under “BNIP3 mRNA, set 1”, EZR (ezrin) shows 0.253
